Assay results as given in publication PMC11988948.
Like-named read-outs stand apart in the source and are kept apart here. No constants are given. Whether binding was seen depends on the method and setting. In cells and extracts the contact can be indirect. Some entries that bind do so weakly or less than the wild type. One block for each molecule: values may come before it.

The chains behind the UniProt entries cited, without tags or fusion partners.
UniProt Q04207: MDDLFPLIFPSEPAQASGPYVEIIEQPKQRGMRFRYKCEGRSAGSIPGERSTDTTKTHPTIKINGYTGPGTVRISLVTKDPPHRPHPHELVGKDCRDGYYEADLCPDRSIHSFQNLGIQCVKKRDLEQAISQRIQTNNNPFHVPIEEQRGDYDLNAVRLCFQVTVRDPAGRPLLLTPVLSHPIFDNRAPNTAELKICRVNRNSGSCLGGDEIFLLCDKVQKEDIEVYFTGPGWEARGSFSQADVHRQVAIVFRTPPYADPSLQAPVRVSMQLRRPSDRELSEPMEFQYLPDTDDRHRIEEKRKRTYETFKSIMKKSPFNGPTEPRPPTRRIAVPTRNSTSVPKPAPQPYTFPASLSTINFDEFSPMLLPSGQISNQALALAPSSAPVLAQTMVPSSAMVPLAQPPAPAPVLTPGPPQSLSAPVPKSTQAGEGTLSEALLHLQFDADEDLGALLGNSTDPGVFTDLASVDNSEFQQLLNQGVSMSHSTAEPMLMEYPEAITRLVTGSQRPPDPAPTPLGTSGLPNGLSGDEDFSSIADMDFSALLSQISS

Legend:
[1] = biological target: T1, vitamin D receptor (mouse (endogenous in mRTECs)) (UniProt P48281); experiment: co-IP; 5 ng VDR antibody added to 40 μg protein sample overnight at 4 °C, protein A/G magnetic beads 2 h at 37 °C, washed, eluted in SDS sample buffer, Western blot; mRTECs under H/R with or without DKS26 (Figure 4C); sample and conditions of Figure 7A not stated
T1 sequence: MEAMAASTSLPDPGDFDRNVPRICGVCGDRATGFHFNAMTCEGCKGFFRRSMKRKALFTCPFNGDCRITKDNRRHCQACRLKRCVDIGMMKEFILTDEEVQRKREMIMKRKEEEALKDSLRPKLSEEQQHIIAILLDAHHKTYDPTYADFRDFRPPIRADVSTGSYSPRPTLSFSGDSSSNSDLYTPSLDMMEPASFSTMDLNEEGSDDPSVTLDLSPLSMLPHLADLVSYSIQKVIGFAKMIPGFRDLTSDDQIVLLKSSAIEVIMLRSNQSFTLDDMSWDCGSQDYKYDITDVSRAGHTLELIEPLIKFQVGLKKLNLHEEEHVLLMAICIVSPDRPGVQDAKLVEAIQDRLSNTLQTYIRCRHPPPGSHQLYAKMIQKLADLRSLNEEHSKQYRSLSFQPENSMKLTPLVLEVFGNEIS

[2] = biological target: T1, vitamin D receptor (mouse (endogenous in mRTECs)); experiment: as above; remark: listed apart in the source

- binding [1]: binds
Molecule: NF-κB P65 phosphorylated at serine 311 (from UniProt Q04207 1-549)

- binding [2]: binds
B1: inhibitor of nuclear factor kappa-B kinase subunit beta (protein, UniProt O88351 1-757)
chain: MSWSPSLPTQTCGAWEMKERLGTGGFGNVIRWHNQATGEQIAIKQCRQELSPKNRNRWCLEIQIMRRLNHPNVVAARDVPEGMQNLAPNDLPLLAMEYCQGGDLRRYLNQFENCCGLREGAVLTLLSDIASALRYLHENRIIHRDLKPENIVLQQGEKRLIHKIIDLGYAKELDQGSLCTSFVGTLQYLAPELLEQQKYTVTVDYWSFGTLAFECITGFRPFLPNWQPVQWHSKVRQKSEVDIVVSEDLNGAVKFSSSLPFPNNLNSVLAERLEKWLQLMLMWHPRQRGTDPQYGPNGCFRALDDILNLKLVHVLNMVTGTVHTYPVTEDESLQSLKTRIQENTGILETDQELLQKAGLVLLPDKPATQCISDSKTNEGLTLDMDLVFLLDNSKINYETQITPRPPPESVSCILQEPKRNLSFFQLRKVWGQVWHSIQTLKEDCNRLQQGQRAAMMSLLRNNSCLSKMKNAMASTAQQLKAKLDFFKTSIQIDLEKYKEQTEFGITSDKLLLAWREMEQAVEQCGRENDVKHLVERMMALQTDIVDLQRSPMGRKQGGTLDDLEEQARELYRKLREKPRDQRTEGDSQEMVRLLLQAIQSFEKKVRVIYTQLSKTVVCKQKALELLPKVEEVVSLMNEDERTVVRLQEKRQKELWNLLKIACSKVRGPVSGSPDSMNVSRLSHPGQLMSQPSSACDSLPESDKKSEELVAEAHALCSRLESALQDTVKEQDRSFTTLDWSWLQMEDEERCSLEQACD
